Article PMC11589570, “Critical assessment of LC3/GABARAP ligands used for degrader development and ligandability of LC3/GABARAP binding pockets” (Nature Communications, 2024)
Values joined by “and” are separate entries in the source; they are usually repeats but may differ in a detail not shown here. Equal values may be shown once. This continues a long series; more values of the same kind are listed elsewhere.

Test system: U2OS cells
Experiment: Cell growth assay (IncuCyte confluence over 72 h)
Assay type: cell-based
Design: key: % of well area covered by cells (confluence)
Conditions: listed as AN1
Description: Cell growth assay: Cell confluence (phase) from RPE1 (hTERT RPE-1, ATCC CLR_4000) or U2OS (ATCC, HTB-96) cell lines were monitored over time with the IncuCyte S3 (Sartiorius, Germany) in 384-well plates in 50 ul DMEM media, supplemented with 10% Fetal Bovine Serum (FBS) 1% penicillin/Streptomycin and incubated 24 h before treatment. Experiment was performed as described in Cano-Franco et al.. […] Cell confluence is represented as % of area covered by cells. Each data point represents the average ratio or confluence obtained from three individual wells of the plate.

O=C1Nc2ccc(Br)cc2C1=Cc1cc(O)c(O)c(Br)c1 [compound 1]
U2OS cell growth (100 nM, 20 h): 40.3593 and 42.0161 and 29.2198
U2OS cell growth (100 nM, 22 h): 47.1624 and 48.8873 and 37.6593
U2OS cell growth (100 nM, 24 h): 44.465 and 44.6258 and 38.7272
U2OS cell growth (100 nM, 26 h): 48.602 and 48.5871 and 40.0085
U2OS cell growth (100 nM, 28 h): 53.2378 and 51.0784 and 44.2737
U2OS cell growth (100 nM, 30 h): 52.1241 and 56.8497 and 46.7302
U2OS cell growth (100 nM, 32 h): 52.332 and 56.7876 and 43.3356
U2OS cell growth (100 nM, 34 h): 56.4986 and 58.8113 and 49.6077
U2OS cell growth (100 nM, 36 h): 58.6166 and 63.5303 and 43.2028
U2OS cell growth (100 nM, 38 h): 77.7639 and 74.5543 and 64.4358
U2OS cell growth (100 nM, 40 h): 68.3542 and 69.419 and 54.429
U2OS cell growth (100 nM, 42 h): 76.7784 and 72.4254 and 61.9031
U2OS cell growth (100 nM, 44 h): 73.6287 and 78.1204 and 68.1469
U2OS cell growth (100 nM, 46 h): 79.0744 and 76.7879 and 63.227
U2OS cell growth (100 nM, 48 h): 81.938 and 81.0935 and 63.2584
U2OS cell growth (100 nM, 50 h): 79.5385 and 82.2944 and 67.0083
U2OS cell growth (100 nM, 52 h): 85.537 and 80.9232 and 75.3459
U2OS cell growth (100 nM, 54 h): 88.5533 and 74.3088 and 78.8125
U2OS cell growth (100 nM, 56 h): 89.7175 and 89.5774 and 78.6502
U2OS cell growth (100 nM, 58 h): 86.6709 and 87.9635 and 78.5974
U2OS cell growth (100 nM, 60 h): 98.084 and 96.9974 and 93.4356
U2OS cell growth (100 nM, 62 h): 94.0484 and 95.3317 and 86.8705
U2OS cell growth (100 nM, 64 h): 93.7005 and 94.9658 and 88.4931
U2OS cell growth (100 nM, 66 h): 97.1488 and 95.9078 and 90.8217
U2OS cell growth (100 nM, 68 h): 95.4599 and 97.6749 and 91.2083
U2OS cell growth (100 nM, 70 h): 96.0033 and 93.7473 and 94.9086
U2OS cell growth (100 nM, 72 h): 94.8126 and 98.1258 and 92.4062
U2OS cell growth (100 nM, time 0 h): 21.9567 and 22.1211 and 20.6153
U2OS cell growth (100 nM, time 2 h): 23.1193 and 26.0513 and 27.5425
U2OS cell growth (100 nM, time 4 h): 28.0919 and 24.4778 and 24.9181
U2OS cell growth (100 nM, time 6 h): 29.5937 and 30.6061 and 32.3593
U2OS cell growth (100 nM, time 22 h): 46.6587 and 44.8263 and 47.8299
U2OS cell growth (100 nM, time 24 h): 47.4234 and 41.3499 and 45.5274
U2OS cell growth (100 nM, time 26 h): 49.354 and 46.9628 and 51.14
U2OS cell growth (100 nM, time 28 h): 61.4289 and 50.0838 and 55.8093
U2OS cell growth (100 nM, time 30 h): 54.7104 and 51.2124 and 54.5607
U2OS cell growth (100 nM, time 32 h): 56.4995 and 54.3411 and 61.8974
U2OS cell growth (100 nM, time 34 h): 62.5173 and 59.1923 and 66.4209
U2OS cell growth (100 nM, time 36 h): 61.921 and 58.4979 and 64.8089
U2OS cell growth (100 nM, time 38 h): 76.036 and 68.1076 and 76.4454
U2OS cell growth (100 nM, time 40 h): 66.9756 and 64.3872 and 70.3312
U2OS cell growth (100 nM, time 42 h): 75.4688 and 66.3078 and 73.7496
U2OS cell growth (100 nM, time 44 h): 77.3622 and 72.6268 and 82.1527
U2OS cell growth (100 nM, time 46 h): 76.8576 and 63.6378 and 79.6082
U2OS cell growth (100 nM, time 48 h): 85.2137 and 78.3549 and 84.3294
U2OS cell growth (100 nM, time 50 h): 82.3085 and 74.8824 and 84.0253
U2OS cell growth (100 nM, time 52 h): 84.2751 and 81.0265 and 87.7303
U2OS cell growth (100 nM, time 54 h): 75.0716 and 75.5887 and 90.1517
U2OS cell growth (100 nM, time 56 h): 89.6793 and 86.153 and 92.1114
U2OS cell growth (100 nM, time 58 h): 89.0774 and 85.9398 and 92.0702
U2OS cell growth (100 nM, time 62 h): 93.6041 and 91.3214 and 94.5686
U2OS cell growth (100 nM, time 64 h): 93.5021 and 92.3567 and 96.8193
U2OS cell growth (100 nM, time 66 h): 93.1507 and 94.1047 and 94.9132
U2OS cell growth (100 nM, time 68 h): 96.7693 and 95.5928 and 97.8491
U2OS cell growth (100 nM, time 72 h): 96.8164 and 96.0661 and 98.6321
U2OS cell growth (500 nM, 20 h): 47.3327 and 47.2476 and 51.4247
U2OS cell growth (500 nM, 22 h): 52.6829 and 55.4408 and 57.9477
U2OS cell growth (500 nM, 24 h): 48.1552 and 52.333 and 63.9871
U2OS cell growth (500 nM, 26 h): 52.0707 and 55.0565 and 61.8975
U2OS cell growth (500 nM, 28 h): 55.3463 and 60.0832 and 59.9447
U2OS cell growth (500 nM, 30 h): 57.0598 and 61.8753 and 66.2399
U2OS cell growth (500 nM, 32 h): 60.6019 and 62.8599 and 65.6454
U2OS cell growth (500 nM, 34 h): 61.5932 and 68.0316 and 73.828
U2OS cell growth (500 nM, 36 h): 65.3017 and 71.6372 and 72.9317
U2OS cell growth (500 nM, 38 h): 76.1236 and 77.9367 and 83.6008
U2OS cell growth (500 nM, 40 h): 73.5823 and 77.4659 and 81.5251
U2OS cell growth (500 nM, 42 h): 77.2567 and 78.2134 and 82.1066
U2OS cell growth (500 nM, 44 h): 77.863 and 81.761 and 85.2505
U2OS cell growth (500 nM, 46 h): 69.923 and 76.7885 and 84.2058
U2OS cell growth (500 nM, 48 h): 81.4475 and 85.8143 and 89.522
U2OS cell growth (500 nM, 50 h): 81.6727 and 87.5695 and 88.7181
U2OS cell growth (500 nM, 52 h): 86.1189 and 91.7552 and 92.6222
U2OS cell growth (500 nM, 54 h): 81.3846 and 90.7649 and 91.7682
U2OS cell growth (500 nM, 56 h): 89.5696 and 92.9592 and 91.0931
U2OS cell growth (500 nM, 58 h): 89.6632 and 91.1472 and 94.1441
U2OS cell growth (500 nM, 60 h): 97.6246 and 97.3955 and 97.9649
U2OS cell growth (500 nM, 62 h): 95.6119 and 97.2161 and 95.9684
U2OS cell growth (500 nM, 64 h): 93.8601 and 97.5402 and 95.7622
U2OS cell growth (500 nM, 66 h): 95.9766 and 97.4674 and 97.4999
U2OS cell growth (500 nM, 68 h): 97.0437 and 98.8544 and 98.2309
U2OS cell growth (500 nM, 70 h): 95.6908 and 97.8445 and 97.14
U2OS cell growth (500 nM, 72 h): 98.5293 and 97.1499 and 98.062
